{"source": "PubChem BioAssay AID1259254 (NCATS, 2017)", "assay": "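Finding genes that stop cells copying their DNA twice in one cycle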 (primary screen)", "system": "human HCT116 colorectal cancer cells", "knock-down reagent": "single siRNA against human genes", "timing": "3 days", "measurement": "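Imaged Hoechst DNA stain sorts each cell into a cycle phase by DNA amount; per plate, G2 fraction set to 0% for non-targeting and 100% for GMNN siRNA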", "reading the numbers": "G2 robust z-score and G2 cells, % of GMNN control: higher = more G2 cells, more excess DNA replication", "active means": "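Active siRNAs have a G2 robust z of 5 or more median absolute deviations over the median, which in these data means about 38% or higher of GMNN control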", "note": "In all, the deposit lists about 59,000 reagents; below is a random part of them. Of all reagents, about 1,550 (2.6%) are marked active. 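G2 share is only a proxy for re-replication; each gene was hit by three separate siRNAs, and active genes were retested.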 The numbers tell different reagents against one gene apart. Further read-outs or replicates are left out here. Not stated in the record: the amount of reagent."}
{"Target gene": "UBL5 (GeneID 59286)", "reagent no.": 1, "G2 robust z-score": 2.02, "G2 cells, % of GMNN control": 17.2, "activity call": "inactive"}
{"Target gene": "UBL5 (GeneID 59286)", "reagent no.": 2, "G2 robust z-score": -1.22, "G2 cells, % of GMNN control": -5.64, "activity call": "inactive"}
{"Target gene": "UBL5 (GeneID 59286)", "reagent no.": 3, "G2 robust z-score": -0.545, "G2 cells, % of GMNN control": -0.865, "activity call": "inactive"}
{"Target gene": "PSKH2 (GeneID 85481)", "reagent no.": 1, "G2 robust z-score": -0.97, "G2 cells, % of GMNN control": -3.85, "activity call": "inactive"}
{"Target gene": "PSKH2 (GeneID 85481)", "reagent no.": 2, "G2 robust z-score": -0.963, "G2 cells, % of GMNN control": -3.81, "activity call": "inactive"}
{"Target gene": "PSKH2 (GeneID 85481)", "reagent no.": 3, "G2 robust z-score": -0.536, "G2 cells, % of GMNN control": -0.806, "activity call": "inactive"}
{"Target gene": "UCN2 (GeneID 90226)", "reagent no.": 1, "G2 robust z-score": -0.0214, "G2 cells, % of GMNN control": 2.82, "activity call": "inactive"}
{"Target gene": "UCN2 (GeneID 90226)", "reagent no.": 2, "G2 robust z-score": 0.252, "G2 cells, % of GMNN control": 4.74, "activity call": "inactive"}
{"Target gene": "UCN2 (GeneID 90226)", "reagent no.": 3, "G2 robust z-score": -0.0278, "G2 cells, % of GMNN control": 2.77, "activity call": "inactive"}
{"Target gene": "SEPTIN7P2 (GeneID 641977)", "reagent no.": 1, "G2 robust z-score": 0.219, "G2 cells, % of GMNN control": 4.51, "activity call": "inactive"}
{"Target gene": "SEPTIN7P2 (GeneID 641977)", "reagent no.": 2, "G2 robust z-score": -0.369, "G2 cells, % of GMNN control": 0.37, "activity call": "inactive"}
{"Target gene": "SEPTIN7P2 (GeneID 641977)", "reagent no.": 3, "G2 robust z-score": -0.88, "G2 cells, % of GMNN control": -3.23, "activity call": "inactive"}

Reformatted: entries from further up.
PSKH2 (GeneID 85481) #3 | G2 robust z-score = -0.536; G2 cells, % of GMNN control = -0.806; activity call = inactive
UCN2 (GeneID 90226) #1 | G2 robust z-score = -0.0214; G2 cells, % of GMNN control = 2.82; activity call = inactive
